# According to PubChem BioAssay AID1487 (National Center for Advancing Translational Sciences (NCATS), 2009):
# Some of the results follow. Further columns of the screen follow, without active or inactive calls. The list favours compounds with an active or inconclusive main result. Words in brackets tell the shape of the fitted curve; partial curves, single points and poor fits give uncertain potencies.
# Test: qHTS Assay for Modulators of Lamin A Splicing
# Conditions: HeLa LMNA splicing GFP/RFP minigene ratio, 48 h
# Outline: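 S3 HeLa cells stably expressing lamin A-EGFP splicing minigene plus DsRed2, 600 cells/well, 48 h compound exposure at 37C. Laser-scanning cytometry; analysed as GFP (500-530 nm)/RFP (575-640 nm) total intensity ratio; 0.5% DMSO vehicle.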
# [1] = measured here: GFP splicing reporter channel
# [2] = measured here: RFP viability control channel
SMILES,AC50 [1],AC50 [2]
COc1cc(C(=O)Nc2ccc3c(c2)N(C(=O)CCN(C)C)c2ccccc2CC3)cc(OC)c1OC,"10 µM [falling, partial curve]","8.91 µM [falling, partial curve, poor fit]"
Cc1ccc(/C=C/C(=O)Nc2ccc(Oc3ccccc3)cc2)o1,,"5.62 µM [rising, single point]"
Fc1ccc(NC(=S)N/N=C/c2ccc(F)c(F)c2)cc1,"17.8 µM [rising, single point]",
O=S(=O)(NCc1ccncc1)c1ccc(Br)s1,,"1.41 µM [rising, full curve]"
Cc1ccc(CNC(=O)C2CCCN(c3nc4ccsc4c(=O)s3)C2)cc1 (centres undefined),,"20 µM [falling, single point]"
Cc1nc2ccccn2c1-c1csc(NCc2ccco2)n1,,"12.6 µM [rising, partial curve]"
CC1=CC(C)(C)Nc2ccc(OC(=O)c3cccnc3)cc21,,"10 µM [falling, partial curve]"
COC(=O)CSc1nnc(-c2ccc(OC)c(OC)c2)o1,"0.0794 µM [falling, full curve, poor fit]",
CCn1cc(-c2cc(C(=O)O)c3ccccc3n2)cn1,,"2.51 µM [falling, partial curve, poor fit]"
Cc1cccc(N2CCN(c3ncnc4c3nc3n4CCCCC3)CC2C)c1 (centres undefined),"11.2 µM [falling, partial curve]","35.5 µM [falling, single point]"
CC(=O)N(c1cccc(C)c1)S(=O)(=O)c1ccc(Cl)cc1,,"11.2 µM [rising, partial curve, poor fit]"
COc1ccc(OC)c(-c2cc(C(=O)Nc3c(C)nn(Cc4ccccc4C)c3C)no2)c1,"11.2 µM [rising, partial curve]","14.1 µM [rising, partial curve]"
NC(=O)c1nsc(C(=O)N(c2ccc(Cl)cc2)C(C(=O)NCC2CCCO2)c2cccs2)c1N (centres undefined),,"35.5 µM [falling, single point]"
Cc1cc(S(=O)(=O)Nc2cccc(O)c2)c(C)s1,,"35.5 µM [rising, single point]"
C(=N\NC1=Nc2cccc3cccc1c23)/c1ccccc1,"0.141 µM [rising, full curve]","0.282 µM [rising, full curve]"
Cc1c(C#N)c2ccccc2n1CCOc1ccccc1F,,"35.5 µM [rising, single point]"
COC(=O)c1ccc(-n2nnnc2SCc2ccccc2OC)cc1,"17.8 µM [rising, single point]","35.5 µM [rising, single point]"
CCCc1n[nH]c2c1/C(=N/O)CC(c1ccccc1)C2 (centres undefined),,"10 µM [rising, partial curve]"
Cc1ccc(NC(=O)CNc2ccc(Cl)c(Cl)c2)cc1S(=O)(=O)N(C)C,,"6.31 µM [rising, full curve]"

# 2 of these compounds in another layout.
SMILES	AC50 [1]	AC50 [2]
COc1ccc(OC)c(-c2cc(C(=O)Nc3c(C)nn(Cc4ccccc4C)c3C)no2)c1	11.2 µM [rising, partial curve]	14.1 µM [rising, partial curve]
Cc1ccc(NC(=O)CNc2ccc(Cl)c(Cl)c2)cc1S(=O)(=O)N(C)C		6.31 µM [rising, full curve]

# Further compounds follow:

SMILES,AC50 [1],AC50 [2]
Cc1cc(C(=O)COC(=O)c2ccc3c(c2)NC(=O)CS3)c(C)n1CC1CCCO1 (centres undefined),"14.1 µM [rising, partial curve]","14.1 µM [rising, single point]"
CC(=O)C1=C(c2ccc(Cl)c(Cl)c2)N(C(C)=O)n2c(nnc2-c2ccccc2)S1,,"0.708 µM [rising, full curve, poor fit]"
CCOc1ccccc1NC(=O)c1cccc(NC(=O)c2ccco2)c1,,"3.16 µM [rising, full curve]"
CC(C)CC(=O)c1c[nH]c(C(=O)NCc2cccnc2)c1,"8.91 µM [falling, single point]","1.12 µM [falling, partial curve]"
CC(=O)Nc1nonc1-c1nnc(SCC(=O)Nc2cc(Cl)ccc2C)n1C,"0.00282 µM [rising, full curve, poor fit]",
COc1ccc(CC(=O)Nn2c(-c3ccccc3)nc3ccccc3c2=O)cc1,"35.5 µM [rising, single point]","31.6 µM [rising, single point]"
COc1cccc(C2C=C(c3ccccc3)Nc3c(C(=O)Nc4ccccc4)cnn32)c1OC (centres undefined),,"25.1 µM [rising, single point]"
CC(=O)N1CCCc2cc(S(=O)(=O)NC(C(=O)NC(C)c3ccccc3)C(C)C)ccc21 (centres undefined),"6.31 µM [rising, partial curve, poor fit]","1.26 µM [rising, full curve]"
Cc1cc(N2CCCCC2)nc(NCc2ccccc2)n1,"12.6 µM [falling, partial curve, poor fit]",
CCOC(=O)C1=C(O)CSC1=Nc1ccccc1,"10 µM [rising, partial curve, poor fit]",
CC(O)CN(C)CC/C=C1/c2ccccc2CSc2ccccc21 (centres undefined),,"35.5 µM [rising, single point]"
Cn1cnnc1SCCNS(=O)(=O)c1ccccc1,"0.501 µM [falling, single point]",
Cc1ccccc1NC(=O)COC(=O)c1ccc(CSc2ccc(Cl)cc2)cc1,"35.5 µM [falling, single point]","20 µM [falling, single point]"
COc1ccc(-c2[nH]ncc2CNC(C)CCn2cccn2)cc1F (centres undefined),"0.178 µM [rising, full curve, poor fit]","1.41 µM [rising, single point]"
CCOC(=O)CNC(=O)CSc1cc(C)nc2ccc(OC)cc12,"22.4 µM [rising, single point]",
Cn1c(=O)c(-c2ccc(Cl)cc2)nc2cnc(OCc3ccccc3)nc21,"17.8 µM [falling, partial curve, poor fit]","15.8 µM [falling, partial curve]"
Cc1ccc(-n2cnc3cc(C(=O)NCc4ccc(F)cc4)ccc32)c(C)c1,"0.0112 µM [rising, full curve, poor fit]",
C=CCOC(=O)C1=C(C)NC(SCC(=O)Nc2nccs2)=C(C#N)C1c1cccs1 (centres undefined),,"1.58 µM [falling, partial curve, poor fit]"
